Reference: PubChem BioAssay AID1259254 (NCATS, 2017)
The whole screen tested about 59,000 reagents; below is a random part of them. Of all reagents, about 1,550 (2.6%) got an active call. 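G2 share is only a proxy for re-replication; each gene was hit by three separate siRNAs, and active genes were retested.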 Entries without a mark were called inactive. The numbers tell different reagents against one gene apart. Further read-outs or replicates are left out here. Not given: the amount of reagent.

Assay: 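Finding genes that stop cells copying their DNA twice in one cycle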 (primary screen)
Cells: human HCT116 colorectal cancer cells
Reagent: single siRNA against human genes
Timing: 3 days
Detection: 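Nuclei stained with Hoechst and imaged; cell-cycle phase assigned by DNA content; G2 share scaled per plate, non-targeting siRNA 0%, GMNN siRNA 100%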
Scale: G2 robust z-score and G2 cells, % of GMNN control: higher = more G2 cells, more excess DNA replication
Rule for the call: 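An siRNA counts as active if its G2 robust z-score lies at least 5 MADs above the screen median; here such calls match roughly 38% of GMNN control or more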

How did the screen score PPCS (phosphopantothenoylcysteine synthetase) #1?
G2 robust z-score: -0.648; G2 cells, % of GMNN control: -1.59

What did the screen give for PPCS (phosphopantothenoylcysteine synthetase) #2?
G2 robust z-score: 1.27; G2 cells, % of GMNN control: 11.9

With PPCS (phosphopantothenoylcysteine synthetase) #3, how do the results read?
G2 robust z-score: 0.366; G2 cells, % of GMNN control: 5.54

Which result is listed for SPATA31H1 (SPATA31 subfamily H member 1) #1?
G2 robust z-score: -0.789; G2 cells, % of GMNN control: -2.58

For SPATA31H1 (SPATA31 subfamily H member 1) #2, how do the results read?
G2 robust z-score: 1.16; G2 cells, % of GMNN control: 11.1

What is on record for SPATA31H1 (SPATA31 subfamily H member 1) #3?
G2 robust z-score: -1.06; G2 cells, % of GMNN control: -4.52

What did the screen give for CCDC8 (coiled-coil domain containing 8 subunit of 3M complex) #1?
G2 robust z-score: -0.144; G2 cells, % of GMNN control: 1.95

With CCDC8 (coiled-coil domain containing 8 subunit of 3M complex) #2, what was measured?
G2 robust z-score: 0.523; G2 cells, % of GMNN control: 6.64

For CCDC8 (coiled-coil domain containing 8 subunit of 3M complex) #3, what was measured?
G2 robust z-score: 0.231; G2 cells, % of GMNN control: 4.59

Laid out differently: entries from further up.
target,siRNA no.,G2 robust z-score,"G2 cells, % of GMNN control"
PPCS (phosphopantothenoylcysteine synthetase),2,1.27,11.9
PPCS (phosphopantothenoylcysteine synthetase),3,0.366,5.54
SPATA31H1 (SPATA31 subfamily H member 1),1,-0.789,-2.58

Additional entries follow.
Which result is listed for CCDC158 (coiled-coil domain containing 158) #1?
G2 robust z-score: 0.272; G2 cells, % of GMNN control: 4.88

What is on record for CCDC158 (coiled-coil domain containing 158) #2?
G2 robust z-score: 4.39; G2 cells, % of GMNN control: 33.9

What did the screen give for CCDC158 (coiled-coil domain containing 158) #3?
G2 robust z-score: -0.711; G2 cells, % of GMNN control: -2.04

What is on record for IL3 (interleukin 3) #1?
G2 robust z-score: -0.651; G2 cells, % of GMNN control: -1.62

With IL3 (interleukin 3) #2, how do the results read?
G2 robust z-score: -0.709; G2 cells, % of GMNN control: -2.02

What is on record for IL3 (interleukin 3) #3?
G2 robust z-score: -0.0527; G2 cells, % of GMNN control: 2.6

For TELO2 (telomere maintenance 2) #1, what was measured?
G2 robust z-score: 3.77; G2 cells, % of GMNN control: 29.5

With TELO2 (telomere maintenance 2) #2, how do the results read?
G2 robust z-score: -1; G2 cells, % of GMNN control: -4.09

For TELO2 (telomere maintenance 2) #3, what does the deposit list?
G2 robust z-score: 3.64; G2 cells, % of GMNN control: 28.6

What is on record for RNF128 (ring finger protein 128) #1?
G2 robust z-score: 1.64; G2 cells, % of GMNN control: 14.5

How did the screen score RNF128 (ring finger protein 128) #2?
G2 robust z-score: -0.859; G2 cells, % of GMNN control: -3.07

With RNF128 (ring finger protein 128) #3, what does the deposit list?
G2 robust z-score: 1.01; G2 cells, % of GMNN control: 10.1

For ZBTB34 (zinc finger and BTB domain containing 34) #1, what was measured?
G2 robust z-score: 2.95; G2 cells, % of GMNN control: 23.7

What did the screen give for ZBTB34 (zinc finger and BTB domain containing 34) #2?
G2 robust z-score: 2.12; G2 cells, % of GMNN control: 17.9

What is on record for ZBTB34 (zinc finger and BTB domain containing 34) #3?
G2 robust z-score: -0.624; G2 cells, % of GMNN control: -1.42
